Source: PubChem BioAssay AID1224830 (NIAID, 2016)

Test: 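Genes whose knock-down alters the TNF-alpha reporter response to LPS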 (primary screen)
System: human THP-1 monocytic leukaemia cells, TNF dual-luciferase reporter clone, PMA-differentiated to macrophage-like cells
Reagent: siRNA pool against human genes, 50 nM
Timing: LPS for 4 h, given about 3 days after siRNA transfection
Challenge: bacterial LPS (TLR4 ligand), 10 ng/ml
Read-out: 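Ratio of firefly to renilla light, scaled to the plate median and expressed as a robust z-score per replicate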
Reading the numbers: TNF reporter robust z-score: higher = stronger TNF reporter response to LPS
Hit rule: 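Each well counts as active if its z-score is over 2.8 or under -1.5; controls are left without a call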
The deposit covers about 18,000 reagents; below is a random part of them. Over the whole deposit, about 2,900 (16%) were called active. 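Calls are made per well; low scores hint the gene aids the LPS response, high scores that it dampens it.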 Repeated entries: four replicate wells of each siRNA pool.

C10orf53 (chromosome 10 open reading frame 53): TNF reporter robust z-score = -0.07; activity call = inactive
C10orf53 (chromosome 10 open reading frame 53): TNF reporter robust z-score = -0.02; activity call = inactive
C10orf53 (chromosome 10 open reading frame 53): TNF reporter robust z-score = -0.88; activity call = inactive
C10orf53 (chromosome 10 open reading frame 53): TNF reporter robust z-score = 0.89; activity call = inactive
SUZ12 (SUZ12 polycomb repressive complex 2 subunit): TNF reporter robust z-score = -1.15; activity call = inactive
SUZ12 (SUZ12 polycomb repressive complex 2 subunit): TNF reporter robust z-score = -0.85; activity call = inactive
SUZ12 (SUZ12 polycomb repressive complex 2 subunit): TNF reporter robust z-score = -0.64; activity call = inactive
SUZ12 (SUZ12 polycomb repressive complex 2 subunit): TNF reporter robust z-score = -0.81; activity call = inactive
PTGES3 (prostaglandin E synthase 3): TNF reporter robust z-score = -1.08; activity call = inactive
PTGES3 (prostaglandin E synthase 3): TNF reporter robust z-score = -1.25; activity call = inactive
PTGES3 (prostaglandin E synthase 3): TNF reporter robust z-score = -0.93; activity call = inactive
OTOG (otogelin): TNF reporter robust z-score = 0.09; activity call = inactive
OTOG (otogelin): TNF reporter robust z-score = -0.51; activity call = inactive
OTOG (otogelin): TNF reporter robust z-score = -0.52; activity call = inactive
OTOG (otogelin): TNF reporter robust z-score = -0.12; activity call = inactive
FRG1 (FSHD region gene 1): TNF reporter robust z-score = 0.57; activity call = inactive
FRG1 (FSHD region gene 1): TNF reporter robust z-score = 0.09; activity call = inactive
FRG1 (FSHD region gene 1): TNF reporter robust z-score = 0.08; activity call = inactive
FRG1 (FSHD region gene 1): TNF reporter robust z-score = 0.4; activity call = inactive
TSPAN32 (tetraspanin 32): TNF reporter robust z-score = -0.55; activity call = inactive
TSPAN32 (tetraspanin 32): TNF reporter robust z-score = 0.67; activity call = inactive
TSPAN32 (tetraspanin 32): TNF reporter robust z-score = 0.73; activity call = inactive
TSPAN32 (tetraspanin 32): TNF reporter robust z-score = 0.93; activity call = inactive
PPP1R26 (protein phosphatase 1 regulatory subunit 26): TNF reporter robust z-score = 0.59; activity call = inactive
PPP1R26 (protein phosphatase 1 regulatory subunit 26): TNF reporter robust z-score = 0.17; activity call = inactive
PPP1R26 (protein phosphatase 1 regulatory subunit 26): TNF reporter robust z-score = 0.25; activity call = inactive
PPP1R26 (protein phosphatase 1 regulatory subunit 26): TNF reporter robust z-score = 1.37; activity call = inactive
LINC02910 (long intergenic non-protein coding RNA 2910): TNF reporter robust z-score = -1.79; activity call = active
LINC02910 (long intergenic non-protein coding RNA 2910): TNF reporter robust z-score = 0.07; activity call = inactive
LINC02910 (long intergenic non-protein coding RNA 2910): TNF reporter robust z-score = -0.05; activity call = inactive
LINC02910 (long intergenic non-protein coding RNA 2910): TNF reporter robust z-score = -0.51; activity call = inactive
CCNC (cyclin C): TNF reporter robust z-score = 0.41; activity call = inactive
CCNC (cyclin C): TNF reporter robust z-score = 0.86; activity call = inactive
CCNC (cyclin C): TNF reporter robust z-score = -0.11; activity call = inactive
CCNC (cyclin C): TNF reporter robust z-score = 1.24; activity call = inactive
OR4M1 (olfactory receptor family 4 subfamily M member 1): TNF reporter robust z-score = 1.17; activity call = inactive
OR4M1 (olfactory receptor family 4 subfamily M member 1): TNF reporter robust z-score = 2.37; activity call = inactive
OR4M1 (olfactory receptor family 4 subfamily M member 1): TNF reporter robust z-score = 1.23; activity call = inactive
OR4M1 (olfactory receptor family 4 subfamily M member 1): TNF reporter robust z-score = 2.47; activity call = inactive
SUMO2 (small ubiquitin like modifier 2): TNF reporter robust z-score = -0.96; activity call = inactive
SUMO2 (small ubiquitin like modifier 2): TNF reporter robust z-score = -1.12; activity call = inactive
SUMO2 (small ubiquitin like modifier 2): TNF reporter robust z-score = -0.37; activity call = inactive
SUMO2 (small ubiquitin like modifier 2): TNF reporter robust z-score = -0.72; activity call = inactive
BST2 (bone marrow stromal cell antigen 2): TNF reporter robust z-score = 0.36; activity call = inactive
BST2 (bone marrow stromal cell antigen 2): TNF reporter robust z-score = 0.08; activity call = inactive
BST2 (bone marrow stromal cell antigen 2): TNF reporter robust z-score = -0.34; activity call = inactive
BST2 (bone marrow stromal cell antigen 2): TNF reporter robust z-score = -0.2; activity call = inactive
